Experimental data: PMC11712024
These are yes or no findings as the source states them, for the method shown. Binding seen in cells or lysates may run through a third protein. Some results given as binding are weak or reduced against the parent protein; the word gives no strength.

Chains of the proteins cited; added tags and fusions are not shown.
UniProt P54609: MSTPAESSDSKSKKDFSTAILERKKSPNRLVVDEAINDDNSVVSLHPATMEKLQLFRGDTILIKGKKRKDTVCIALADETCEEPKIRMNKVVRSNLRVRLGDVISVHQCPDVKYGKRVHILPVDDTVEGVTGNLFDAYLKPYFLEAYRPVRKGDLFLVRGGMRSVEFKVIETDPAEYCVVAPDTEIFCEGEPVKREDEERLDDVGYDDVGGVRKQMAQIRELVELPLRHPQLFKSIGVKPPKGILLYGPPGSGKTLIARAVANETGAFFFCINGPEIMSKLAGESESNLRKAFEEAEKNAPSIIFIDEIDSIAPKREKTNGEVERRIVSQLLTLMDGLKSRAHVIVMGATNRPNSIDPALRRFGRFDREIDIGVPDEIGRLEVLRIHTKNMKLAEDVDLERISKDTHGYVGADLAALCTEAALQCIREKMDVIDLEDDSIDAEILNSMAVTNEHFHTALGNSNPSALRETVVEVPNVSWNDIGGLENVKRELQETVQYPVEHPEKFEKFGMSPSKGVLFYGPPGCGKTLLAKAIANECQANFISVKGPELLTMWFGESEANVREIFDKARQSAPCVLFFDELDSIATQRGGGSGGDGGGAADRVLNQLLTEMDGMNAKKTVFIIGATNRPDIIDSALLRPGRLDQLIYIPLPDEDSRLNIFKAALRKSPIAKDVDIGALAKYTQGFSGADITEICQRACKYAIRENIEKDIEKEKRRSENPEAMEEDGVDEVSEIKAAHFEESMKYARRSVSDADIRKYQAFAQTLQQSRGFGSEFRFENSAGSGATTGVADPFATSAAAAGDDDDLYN

B1: RFP-OTU1 (enzyme, UniProt Q8LG98 1-306)
chain: MQNQIDMVKDEAEVAASISAIKGEEWGNCSSVEDQPSFQEEEAAKVPYVGDKEPLSSLAAEYQSGSPILLEKIKILDSQYIGIRRTRGDGNCFFRSFMFSYLEHILESQDRAEVDRIKVNVEKCRKTLQNLGYTDFTFEDFFALFLEQLDDILQGTEESISYDELVNRSRDQSVSDYIVMFFRFVTAGDIRTRADFFEPFITGLSNATVDQFCKSSVEPMGEESDHIHITALSDALGVAIRVVYLDRSSCDSGGVTVNHHDFVPVGITNEKDEEASAPFITLLYRPGHYDILYPKPSCKVSDNVGK
B2: OTU1-RFP (enzyme, UniProt Q8LG98 1-306)
chain: B1 chain
B3: RFP-OTU2 (enzyme, UniProt Q9LPT6 1-208)
chain: MEGIIVRRVIPSDNSCLFNAIGYVMDKDKNKAPELRQVIAAAVASNKEKYNEAFLGKLNEEYCAWILNPDKWGGAIELSILADYYGREIAAYDIQTSRCDLYGQTRNYDERVMLIYDGLHYDALALSPFEGAEEDFDMTIYPVGKDRSIGSIEGLALNLVKDQQRKRSYTDTANFTLRCGVCQIGVIGQKEAVEHAQATGHVNFQEYK

Target: GFP-CDC48 (Arabidopsis thaliana) (UniProt P54609)
Assay: co-IP; GFP-CDC48 transiently co-expressed with RFP-tagged OTU variants in N. benthamiana leaves; GFP-CDC48 purified with GFP-trap beads, immunoblot

Binder	binding
B1	binds
B2	binds
B3	binds
